In article PMC10454854, “Structural and Biochemical Analysis of the Recombination Mediator Protein RecR from Campylobacter jejuni” (International Journal of Molecular Sciences, 2023):

How the values were obtained:
[1] = system: cjRecO (Campylobacter jejuni); assay: fluorescence polarization; details: lower affinity than cjRecR; Fluorescence polarization: 0.8 nM fluorescein 40-mer ssDNA, protein up to 100 uM, one-site fit; pH and temperature not stated; recombinant protein; single-stranded DNA
[2] = system: cjRecR + cjRecO; assay: fluorescence polarization; details: cjRecR and cjRecO mixture, only additive effect, no stable RecOR complex detected; Fluorescence polarization: 0.8 nM fluorescein 40-mer ssDNA, protein up to 100 uM, one-site fit; pH and temperature not stated; recombinant protein; protein details: His6 tag removed with thrombin; single-stranded DNA

Question: Does “TTATAGGCATATAGGAGTAATTTTCTTGGGCTATGCAGTA [40-mer ssDNA]” bind [1]?
Answer: binds more weakly

Question: Does “TTATAGGCATATAGGAGTAATTTTCTTGGGCTATGCAGTA [40-mer ssDNA]” bind [2]?
Answer: binds

The exact form of at least one protein or probe is not confirmed. For some assays here: A weaker result is weaker than the reference pair of the same experiment.
